Experiment [1] addresses serotonin 5HT1A receptor fused to Renilla luciferase (human) (UniProt P08908). Briefly: FRET or BRET; BRET saturation in HEK-293T cells: constant cDNA for 5HT1AR-RLuc (1.5 μg; 0.75 μg in the negative control) and increasing cDNA for the YFP fusion (CB2R-YFP 0.2 to 4 μg; GHSR-1a-YFP 0.2 to 2 μg); vehicle pre-treatment 30 min; 5 μM coelenterazine H; HBSS with 0.1% glucose, pH 7.4. (BRET reads energy transfer from a luciferase to a nearby fluorophore.)

The chains behind the UniProt entries cited, without tags or fusion partners.
UniProt P08908: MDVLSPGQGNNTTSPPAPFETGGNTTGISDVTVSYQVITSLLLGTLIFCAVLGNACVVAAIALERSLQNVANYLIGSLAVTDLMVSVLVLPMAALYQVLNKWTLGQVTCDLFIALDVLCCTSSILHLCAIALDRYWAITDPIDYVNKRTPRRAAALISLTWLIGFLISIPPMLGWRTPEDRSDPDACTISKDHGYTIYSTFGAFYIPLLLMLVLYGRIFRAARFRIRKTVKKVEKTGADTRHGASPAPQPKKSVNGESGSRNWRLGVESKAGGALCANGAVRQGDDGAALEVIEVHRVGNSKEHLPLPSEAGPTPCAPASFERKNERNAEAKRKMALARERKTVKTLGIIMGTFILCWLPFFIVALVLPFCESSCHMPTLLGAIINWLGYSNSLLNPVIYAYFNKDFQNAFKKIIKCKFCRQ
UniProt Q64264: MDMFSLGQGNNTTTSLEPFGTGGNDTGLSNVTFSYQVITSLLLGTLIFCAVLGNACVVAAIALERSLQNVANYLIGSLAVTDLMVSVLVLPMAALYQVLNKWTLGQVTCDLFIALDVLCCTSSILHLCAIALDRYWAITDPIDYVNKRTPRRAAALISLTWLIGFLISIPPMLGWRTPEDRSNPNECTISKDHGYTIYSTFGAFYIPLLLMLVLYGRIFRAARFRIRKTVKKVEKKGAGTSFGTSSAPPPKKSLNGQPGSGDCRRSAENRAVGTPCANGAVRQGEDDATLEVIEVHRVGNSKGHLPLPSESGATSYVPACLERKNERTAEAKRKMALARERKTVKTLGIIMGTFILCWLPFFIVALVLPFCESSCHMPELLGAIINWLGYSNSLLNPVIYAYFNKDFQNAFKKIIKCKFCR
UniProt P34972: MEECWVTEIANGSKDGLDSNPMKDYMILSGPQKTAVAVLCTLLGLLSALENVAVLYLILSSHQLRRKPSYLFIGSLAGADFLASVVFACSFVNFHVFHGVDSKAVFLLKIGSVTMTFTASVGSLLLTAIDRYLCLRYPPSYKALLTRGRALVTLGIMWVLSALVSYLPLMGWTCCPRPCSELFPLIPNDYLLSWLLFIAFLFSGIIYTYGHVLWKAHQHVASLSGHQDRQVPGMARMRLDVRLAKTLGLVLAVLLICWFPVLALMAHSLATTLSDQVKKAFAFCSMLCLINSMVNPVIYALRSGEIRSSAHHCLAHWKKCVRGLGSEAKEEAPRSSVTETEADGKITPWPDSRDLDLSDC
UniProt P19327: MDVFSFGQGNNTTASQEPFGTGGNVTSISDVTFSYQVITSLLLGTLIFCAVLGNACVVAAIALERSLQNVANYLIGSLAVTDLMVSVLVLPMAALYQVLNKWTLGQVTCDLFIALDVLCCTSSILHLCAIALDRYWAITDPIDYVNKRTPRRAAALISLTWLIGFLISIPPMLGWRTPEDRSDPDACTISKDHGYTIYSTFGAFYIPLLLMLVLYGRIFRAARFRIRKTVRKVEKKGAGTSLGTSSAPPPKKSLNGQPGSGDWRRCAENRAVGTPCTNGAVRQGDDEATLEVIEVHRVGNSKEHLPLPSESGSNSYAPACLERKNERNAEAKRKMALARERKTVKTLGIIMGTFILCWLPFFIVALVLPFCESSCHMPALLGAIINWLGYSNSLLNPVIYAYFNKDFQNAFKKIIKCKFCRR
UniProt Q92847: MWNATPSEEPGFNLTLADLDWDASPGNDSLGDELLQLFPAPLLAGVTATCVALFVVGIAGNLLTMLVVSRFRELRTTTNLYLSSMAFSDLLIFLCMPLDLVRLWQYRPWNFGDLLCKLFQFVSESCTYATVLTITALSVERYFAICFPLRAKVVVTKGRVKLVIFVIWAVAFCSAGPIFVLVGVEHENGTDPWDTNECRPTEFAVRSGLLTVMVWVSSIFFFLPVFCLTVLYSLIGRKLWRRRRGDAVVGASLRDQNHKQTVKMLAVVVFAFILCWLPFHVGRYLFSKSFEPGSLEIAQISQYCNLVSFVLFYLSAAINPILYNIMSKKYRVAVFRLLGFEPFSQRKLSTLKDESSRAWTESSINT
UniProt P47936: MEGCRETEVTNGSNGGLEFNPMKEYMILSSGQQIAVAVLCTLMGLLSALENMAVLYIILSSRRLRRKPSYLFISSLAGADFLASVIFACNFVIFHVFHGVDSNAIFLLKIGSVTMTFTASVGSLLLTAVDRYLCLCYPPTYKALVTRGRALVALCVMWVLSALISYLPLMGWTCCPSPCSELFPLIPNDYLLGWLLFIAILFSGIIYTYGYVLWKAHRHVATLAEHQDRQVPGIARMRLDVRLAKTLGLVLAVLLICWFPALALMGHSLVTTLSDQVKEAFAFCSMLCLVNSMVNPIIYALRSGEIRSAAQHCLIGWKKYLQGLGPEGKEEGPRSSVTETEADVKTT
UniProt P32121: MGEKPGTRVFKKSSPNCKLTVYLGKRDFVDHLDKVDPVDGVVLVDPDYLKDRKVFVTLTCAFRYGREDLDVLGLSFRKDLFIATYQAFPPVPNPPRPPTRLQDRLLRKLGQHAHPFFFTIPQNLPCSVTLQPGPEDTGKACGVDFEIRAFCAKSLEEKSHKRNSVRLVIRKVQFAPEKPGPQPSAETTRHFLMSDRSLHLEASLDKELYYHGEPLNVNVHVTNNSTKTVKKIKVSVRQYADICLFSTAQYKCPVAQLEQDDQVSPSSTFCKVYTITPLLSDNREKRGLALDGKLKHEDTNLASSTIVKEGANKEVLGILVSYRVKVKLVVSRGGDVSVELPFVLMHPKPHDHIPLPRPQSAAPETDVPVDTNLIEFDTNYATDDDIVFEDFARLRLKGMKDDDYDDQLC

The target of experiment [2] is serotonin 5HT1A receptor, endogenous in mouse primary striatal neurons (mouse (endogenous in primary striatal neurons)) (UniProt Q64264). Briefly: proximity ligation; in situ PLA (Duolink) on fixed, permeabilised mouse primary striatal neurons with mouse anti-CB2R and rabbit anti-5HT1AR antibodies; normoxia in complete medium or glucose-oxygen deprivation for 4 h; pre-treated with vehicle, 200 nM CBD or 200 nM CBG for 30 min.

Experiment [3] addresses cannabinoid CB2 receptor fused to YFP (human) (UniProt P34972). The experiment is described as follows: condition: only cells pre-treated with 200 nM CBD or 200 nM CBG; FRET or BRET; β-arrestin 2 recruitment by BRET in HEK-293T cells expressing β-arrestin 2-RLuc, CB2R-YFP and 5HT1AR (CB2-5HT1A-Hets); pre-treated with 200 nM CBD or 200 nM CBG, then stimulated with 200 nM serotonin.

The target of experiment [4] is serotonin 5HT1A receptor fused to YFP (human) (UniProt P08908). Briefly: FRET or BRET; β-arrestin 2 recruitment by BRET in HEK-293T cells expressing β-arrestin 2-RLuc (1 μg cDNA) and one receptor-YFP (1.5 μg cDNA); stimulated with 200 nM JWH-133 (CB2R, read 25 min after treatment) or 200 nM serotonin (5HT1AR, read 7 min after treatment); pre-treated with vehicle, 200 nM CBD or 200 nM CBG (both partially blocked the agonist's effect).

Experiment [5] deals with cannabinoid CB2 receptor fused to YFP (human) (UniProt P34972). The experiment is described as above.
Experiment [6] has the same target. The experiment is described as follows: FRET or BRET; β-arrestin 2 recruitment by BRET in HEK-293T cells expressing β-arrestin 2-RLuc, CB2R-YFP and 5HT1AR (CB2-5HT1A-Hets); stimulated with 200 nM serotonin, vehicle pre-treatment; read 25 min after treatment.
Experiment [7] deals with serotonin 5HT1A receptor, endogenous in Wistar rat brain (rat (endogenous in Wistar rat brain sections)) (UniProt P19327). Briefly: proximity ligation; in situ PLA (Duolink) on fixed cortical sections of Wistar rat brains taken 1, 7 or 30 days after hypoxia-ischemia (vehicle or CBD 1 mg/kg) or sham surgery.

These are yes or no findings as the source states them, for the method shown. Binding seen in cells or lysates may run through a third protein. Some entries that bind do so weakly or less than the wild type.

Consider “GHS-R1a receptor fused to YFP (from UniProt Q92847 1-366)”, for which the binding result in experiment [1] is “no binding”.

With “cannabinoid CB2 receptor, endogenous in mouse primary striatal neurons (from UniProt P47936 1-347)”, the binding result in experiment [2] is “binds”.

Turning to “β-arrestin 2 fused to Renilla luciferase (from UniProt P32121 1-409)”, the binding entry was “no binding” in experiment [3], “binds” in experiment [4], “binds” in experiment [5] and “binds” in experiment [6].

B1: cannabinoid CB2 receptor, endogenous in Wistar rat brain (receptor, UniProt Q9QZN9 1-360)
chain: MAGCRELELTNGSNGGLEFNPMKEYMILSDAQQIAVAVLCTLMGLLSALENVAVLYLILSSQRLRRKPSYLFIGSLAGADFLASVIFACNFVIFHVFHGVDSRNIFLLKIGSVTMTFTASVGSLLLTAVDRYLCLCYPPTYKALVTRGRALVALGVMWVLSALISYLPLMGWTCCPSPCSELFPLIPNDYLLGWLLFIAILFSGIIYTYGYVLWKAHQHVASLAEHQDRQVPGIARMRLDVRLAKTLGLVMAVLLICWFPALALMGHSLVTTLSDKVKEAFAFCSMLCLVNSMINPIIYALRSGEIRSAAQHCLTGWKKYLQGLGSEGKEEAPKSSVTETEAEVKTTTGPGSRTPGCSNC
Consider B1, for which the binding entry in experiment [7] was “binds”.

For the origin of these results see paper PMC9456173.
